PubChem BioAssay AID652243 | Drosophila RNAi Screening Center – 2013
In all, the deposit lists about 24,000 reagents; this is a random part of those with a known target gene and a result. In the full data, 246 (1%) got an active call. 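Plates not normalised; calls are printed but the firefly/Renilla ratio behind them is not deposited; fold cut for lowering reported inconsistently.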 Raw values are not corrected between plates. Names joined by + are all predicted targets of the reagent. The record does not give: the amount of reagent.

Assay: 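Fly genes required for human androgen receptor driven transcription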 (primary screen)
System: Drosophila S2R+ cells
Reagent: long dsRNA against Drosophila genes
Timing: 72 h (48 h, then 24 h hormone)
Conditions: synthetic androgen R1881 at 10 nM for 24 h
Measured: 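Per-well raw luminescence of the androgen-driven firefly reporter and of the Renilla control, two replicates each, without normalisation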
Direction: firefly reporter light: higher = more light from androgen-responsive reporter; Renilla control light: higher = more constitutive control signal (cell number, transfection)
Call rule: 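Across duplicate plates, a knock-down whose log firefly/Renilla ratio shifted a set fold down or up from the GFP/LacZ control mean was a hit; the downward cut appears as both 1.5 and 3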
Meaning of the calls: active = hit: reporter lowered or raised; inactive = no hit

gene	dsRNA	firefly reporter light, replicate 1	firefly reporter light, replicate 2	Renilla control light, replicate 1	Renilla control light, replicate 2	call
Gr98a (Gustatory receptor 98a)	DRSC14719	4.85e5	5.20e5	2.10e6	3.50e6	inactive
CG32668	DRSC18879	1.02e6	5.33e5	1.92e6	1.04e6	inactive
CG30275	DRSC04163	3.22e5	3.61e5	2.48e6	1.97e6	inactive
CG13946	DRSC00364	1.30e5	1.46e5	5.97e5	8.50e5	inactive
Cdk9 (Cyclin-dependent kinase 9)	DRSC04601	1.60e5	1.89e5	1.67e6	1.28e6	inactive
Vha16-5 (Vacuolar H[+] ATPase 16kD subunit 5)	DRSC02986	2.27e5	2.53e5	1.45e6	1.09e6	inactive
CG2209	DRSC19843	5.71e5	4.89e5	3.65e6	3.89e6	inactive
gdl-ORF39 + gdl	DRSC11350	2.47e5	2.30e5	2.55e6	1.88e6	inactive
CG31128	DRSC13675	97823	1.27e5	1.04e5	91693	inactive
CG13492	DRSC04137	1.82e5	2.23e5	1.89e6	1.19e6	inactive
Chd64	DRSC08649	1.19e6	9.06e5	1.05e6	8.12e5	inactive
Chd64	DRSC28823	3.92e5	3.19e5	1.37e6	1.45e6	inactive
Droj2 (DnaJ-like-2)	DRSC16450	80211	46731	6.70e5	3.90e5	inactive
Droj2 (DnaJ-like-2)	DRSC28863	3.37e5	3.64e5	9.01e5	9.32e5	inactive
Mink (Mitotic spindle and nuclear protein)	DRSC14291	23376	34320	2.76e5	3.12e5	inactive
mRpL52 (mitochondrial ribosomal protein L52)	DRSC06585	4.67e5	4.55e5	2.15e6	2.19e6	inactive
CG30184	DRSC22277	6.92e5	6.00e5	2.54e6	2.25e6	inactive
CG30184	DRSC29631	5.05e5	6.66e5	9.97e5	9.97e5	inactive
CG32212 + hpRNA:CR33940	DRSC09618	2.87e5	1.34e5	7.36e5	4.77e5	inactive
Spx (Spliceosomal protein on the X)	DRSC18720	1.41e5	1.48e5	1.69e6	2.16e6	inactive
Spx (Spliceosomal protein on the X)	DRSC23542	1.79e5	2.79e5	7.00e5	5.80e5	inactive
Porin2	DRSC02584	2.49e5	2.54e5	1.09e6	1.78e6	inactive
CG32651	DRSC18941	1.23e6	9.95e5	1.64e6	1.01e6	inactive
CanB (Calcineurin B)	DRSC18449	69833	83667	1.16e6	1.12e6	inactive
CanB (Calcineurin B)	DRSC29220	5.29e5	4.99e5	1.47e6	1.54e6	inactive
eca (eclair)	DRSC22290	1.12e6	1.21e6	9.12e5	1.05e6	inactive
pot (papillote)	DRSC19850	58016	85032	4.50e5	3.85e5	inactive
pot (papillote)	DRSC26969	4.12e5	3.16e5	7.18e5	4.45e5	inactive
upd2 (unpaired 2)	DRSC19969	6.12e5	9.69e5	1.14e6	2.24e6	inactive
upd2 (unpaired 2)	DRSC24190	4.53e5	3.18e5	1.51e6	5.92e5	inactive
CG32053	DRSC10683	1.31e6	1.01e6	1.58e6	1.79e6	inactive
CG13775	DRSC02279	1.73e5	1.61e5	1.32e6	1.17e6	inactive
CG13775	DRSC29121	5.85e5	4.84e5	1.07e6	8.81e5	inactive
vnd (ventral nervous system defective)	DRSC18849	2.02e5	2.49e5	2.19e6	1.84e6	inactive
vnd (ventral nervous system defective)	DRSC22487	4.52e5	7.65e5	1.46e6	2.39e6	inactive
vnd (ventral nervous system defective)	DRSC25390	3.44e5	2.47e5	6.52e5	3.37e5	inactive
Panx (Panoramix)	DRSC04563	2.19e5	2.22e5	1.72e6	1.43e6	inactive
CG15345 (retired record)	DRSC18030	6.00e5	8.12e5	1.88e6	1.67e6	inactive
CG15345 (retired record)	DRSC22712	2.93e5	2.06e5	1.04e6	6.31e5	inactive
Vsp37A (Vacuolar protein sorting 37A)	DRSC18794	2.53e5	3.35e5	2.75e6	2.62e6	inactive

4 entries from above, sorted by “Renilla control light, replicate 2”, lowest first.
gene	dsRNA	firefly reporter light, replicate 1	firefly reporter light, replicate 2	Renilla control light, replicate 1	Renilla control light, replicate 2	call
CG13946	DRSC00364	1.30e5	1.46e5	5.97e5	8.50e5	inactive
CG32668	DRSC18879	1.02e6	5.33e5	1.92e6	1.04e6	inactive
Cdk9 (Cyclin-dependent kinase 9)	DRSC04601	1.60e5	1.89e5	1.67e6	1.28e6	inactive
CG30275	DRSC04163	3.22e5	3.61e5	2.48e6	1.97e6	inactive
